PubChem BioAssay AID1671195 | Yale University | 2021

Aim: 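Genes whose knockdown alters LDL uptake in liver cancer cells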 (primary screen)
System: human Huh7 hepatoma cells
Reagents: siRNA pool against human genes, 18 nM
Duration: about 2 to 2.5 days of knockdown, then 8 h LDL uptake
Challenge: DiI-labelled LDL at 30 µg/ml for 8 h, in lipoprotein-deficient serum medium
Measured: 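Fluorescent LDL signal imaged in cells, scaled to the plate median, robust z-score for each replicate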
Reading the numbers: robust z-score: higher = more LDL uptake after knockdown
Hit rule: 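a gene counts as active if at least two replicate z-scores exceed ±2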
In all, the deposit lists about 22,000 reagents; shown is an unselected part. In the full data, about 1,510 (6.9%) are marked active. 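Active includes knockdowns raising or lowering LDL uptake; positive z-scores mean more uptake, negative mean less.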

gene knocked down,"robust z-score, replicate 1","robust z-score, replicate 2","robust z-score, replicate 3",activity call
CMTM7,-0.0376,0.613,0.427,inactive
CIMAP1D,-1.47,-1.49,-1.55,inactive
LIMD1,-0.799,-0.717,-0.61,inactive
KRT16,-0.812,-0.855,-0.409,inactive
WDR62,-0.521,-0.398,-0.335,inactive
C10orf120,0.753,-0.0517,0.411,inactive
GREB1,-0.885,-0.649,-2.09,inactive
IFRD1,-0.409,-0.842,-0.624,inactive
HTRA3,0.441,2.58,1.39,inactive
ATRX,0.289,-0.0261,0.3,inactive
RPRM,-0.771,-0.234,-1.38,inactive
CDK4,0.345,0.521,1,inactive
KLHL25,-0.105,-0.471,0.0785,inactive
KLHL13,0.000542,0.253,0.882,inactive
PGBD5,0.294,-0.443,-0.242,inactive
PPRC1,-0.59,-0.356,-0.738,inactive
SF1,-0.761,-1.25,-1.42,inactive
ANO8,-1.55,-1.32,-0.28,inactive
LOC400937 (retired record),1.16,1.11,1.61,inactive
C6orf141,-1.93,-0.799,-0.341,inactive
CFAP300,0.673,0.796,0.457,inactive
HIPK3,1.28,-0.671,0.963,inactive
STARD13,-0.563,-0.44,-0.0237,inactive
PBRM1,-1.17,-0.388,-0.826,inactive
NLRP8,0.0568,-0.335,-0.555,inactive
GDPD1,-0.00633,0.161,-0.00361,inactive
GRIN3B,0.162,0.445,0.721,inactive
OLFML1,1.74,2.08,1.91,active
SLC17A3,0.0117,0.745,0.663,inactive
KLHL10,2.39,1.44,1.76,inactive
TMEM266,1.22,1.24,-0.0534,inactive
B4GALNT4,-0.954,-0.905,-0.754,inactive
DOLK,1.41,-0.0398,1.21,inactive
KLHL12,1.09,0.388,0.319,inactive
KASH5,0.411,-0.127,0.144,inactive
MAGEE1,-0.631,-0.119,0.35,inactive
RNF10,0.864,1.65,0.652,inactive
YOD1,-1.73,-1.7,-1.26,inactive
SNX12,0.0423,1.02,0.83,inactive

The list goes on, starting with the last 3 of the part before.
gene knocked down,"robust z-score, replicate 1","robust z-score, replicate 2","robust z-score, replicate 3",activity call
RNF10,0.864,1.65,0.652,inactive
YOD1,-1.73,-1.7,-1.26,inactive
SNX12,0.0423,1.02,0.83,inactive
ZAN,2.22,0.178,0.474,inactive
STXBP4,0.483,0.649,0.593,inactive
PRLHR,-0.118,0.788,1.21,inactive
TPSB2,0.236,-0.167,-0.13,inactive
LOC440115 (retired record),0.953,0.743,0.839,inactive
FBN1,1.15,1.49,3.88,inactive
INMT,0.274,-0.709,-0.65,inactive
SLK,0.223,0.276,0.0903,inactive
RPEL1,-0.922,-0.192,-0.26,inactive
LRP1B,-0.817,-0.51,-0.332,inactive
LOC440048 (retired record),-1.06,-1.05,-1.37,inactive
AGXT2,-1.04,-0.878,-0.867,inactive
LOC387783 (retired record),-0.432,-0.312,-0.397,inactive
YME1L1,0.33,1.89,0.515,inactive
FCAMR,-0.516,-0.537,-0.441,inactive
CSF3,2.26,3.64,2.36,active
SKIC3,0.00888,0.18,-1.02,inactive
SELPLG,0.118,0.551,-1.06,inactive
GOLIM4,1.1,-0.96,0.34,inactive
RAB7A,0.843,1.7,-0.125,inactive
SOX10,-0.921,-0.598,-0.95,inactive
AACS,1.72,-0.118,-0.158,inactive
AGBL4,-0.627,-0.311,0.575,inactive
TENT5B,-0.0204,1.68,1.54,inactive
CD58,-1.23,-0.65,-1.15,inactive
WDR33,0.0728,-1.1,-0.75,inactive
CKM,1.33,0.895,2.45,inactive
LINC00668,0.776,0.856,0.704,inactive
KCNA6,0.0136,0.199,-0.264,inactive
PARD6G,-1.12,-2.14,-1.47,inactive
GLIPR1L2,0.489,1.72,2.29,inactive
GRM7,-0.172,-1.19,-0.59,inactive
RPAIN,-0.719,-0.877,-1.16,inactive
GNAZ,0.248,0.122,0.683,inactive
APOBEC3B,0.0115,-0.799,-0.478,inactive
C4BPB,-0.0798,-0.815,0.334,inactive
PRKAB1,0.794,0.91,0.789,inactive
WTIP,-0.699,-0.497,-0.638,inactive
ELK4,0.396,0.173,-0.0111,inactive
PER1,-0.0727,0.155,0.135,inactive
DLX2,-2.22,-1.84,-2.39,active
C5orf22,0.93,1.41,2.11,inactive
ZNF665,0.875,0.841,0.734,inactive
SATB2,-1.05,-0.35,0.418,inactive
RNASE4,1.05,1.01,0.614,inactive
GTF2E2,0.234,0.898,0.722,inactive
KRTAP17-1,-1.11,-1.01,-0.347,inactive
CDON,2.1,0.78,0.778,inactive
